# The supplement of paper PMC8728848
# This is one part of the list.
# What was measured:
# Assay in all cases: glycan array binding signal (z-score within array); higher = stronger binding
# Details in all cases: glycan notation: IUPAC condensed, linker removed
# [1] = target: Neu5Ac(a2-6)Gal(b1-4)GlcNAc(b1-6)[Gal(b1-3)GlcNAc(b1-3)]Gal(b1-4)Glc
# Outline: (§1)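 The Consortium for Functional Glycomics database supplied 3228 glycan arrays, of which those lacking an available protein sequence were dropped. The binding signal, a within-array Z-score, was averaged across arrays of the same protein sequence and across linkers. Negative scores can be read as non-binding.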
# [2] = target: Neu5Ac(a2-6)Gal(b1-4)GlcNAc(b1-6)[Gal(b1-3)]GalNAc
# Outline: as §1
# [3] = target: Neu5Ac(a2-6)Gal(b1-4)GlcNAc6S
# Outline: as §1
# Neu5Ac(a2-6)GalNAc = target: Neu5Ac(a2-6)GalNAc
# Outline: as §1
# [4] = target: Neu5Ac(a2-6)GalNAc(b1-4)GlcNAc
# Outline: as §1
# [5] = target: Neu5Ac(a2-6)GalNAc(b1-4)GlcNAc6S
# Outline: as §1
# [6] = target: Neu5Ac(a2-6)GlcNAc(b1-4)GlcNAc
# Outline: as §1
# [7] = target: Neu5Ac(a2-6)GlcNAc(b1-4)GlcNAc(b1-4)GlcNAc
# Outline: as §1
# Neu5Ac(a2-8)Neu5Ac = target: Neu5Ac(a2-8)Neu5Ac
# Outline: as §1
# [8] = target: Neu5Ac(a2-8)Neu5Ac(a2-3)Gal(b1-3)GalNAc(b1-4)[Neu5Ac(a2-3)]Gal(b1-4)Glc
# Outline: as §1
# [9] = target: Neu5Ac(a2-8)Neu5Ac(a2-3)Gal(b1-3)GalNAc(b1-4)[Neu5Ac(a2-8)Neu5Ac(a2-3)]Gal(b1-4)Glc
# Outline: as §1
# [10] = target: Neu5Ac(a2-8)Neu5Ac(a2-3)Gal(b1-4)Glc
# Outline: as §1
# [11] = target: Neu5Ac(a2-8)Neu5Ac(a2-3)Gal(b1-4)GlcNAc
# Outline: as §1
# [12] = target: Neu5Ac(a2-8)Neu5Ac(a2-3)[Gal(b1-3)GalNAc(b1-4)]Gal(b1-4)Glc
# Outline: as §1
# [13] = target: Neu5Ac(a2-8)Neu5Ac(a2-3)[GalNAc(b1-4)]Gal(b1-4)Glc
# Outline: as §1
# [14] = target: Neu5Ac(a2-8)Neu5Ac(a2-8)Neu5Ac
# Outline: as §1
# [15] = target: Neu5Ac(a2-8)Neu5Ac(a2-8)Neu5Ac(a2-3)Gal(b1-4)Glc
# Outline: as §1
# [16] = target: Neu5Ac(a2-8)Neu5Ac(a2-8)Neu5Ac(a2-3)[Gal(b1-3)GalNAc(b1-4)]Gal(b1-4)Glc
# Outline: as §1
# [17] = target: Neu5Ac(a2-8)Neu5Ac(a2-8)Neu5Ac(a2-3)[GalNAc(b1-4)]Gal(b1-4)Glc
# Outline: as §1
# [18] = target: Neu5Ac(a2-8)Neu5Ac(a2-8)Neu5Ac(a2-8)Neu5Ac(a2-3)[GalNAc(b1-4)]Gal(b1-4)Glc
# Outline: as §1
# [19] = target: Neu5Ac(a2-8)Neu5Gc(a2-3)Gal(b1-4)GlcNAc
# Outline: as §1
# [20] = target: Neu5Ac(b2-6)Gal(b1-4)GlcNAc
# Outline: as §1
# Neu5Ac(b2-6)GalNAc = target: Neu5Ac(b2-6)GalNAc
# Outline: as §1
# [21] = target: Neu5Ac9Ac(a2-3)Gal(b1-4)GlcNAc
# Outline: as §1
# [22] = target: Neu5Ac9Ac(a2-6)Gal(b1-4)GlcNAc
# Outline: as §1
# [23] = target: Neu5Gc(a2-3)Gal(b1-3)GlcNAc
# Outline: as §1
# [24] = target: Neu5Gc(a2-3)Gal(b1-3)[Fuc(a1-4)]GlcNAc
# Outline: as §1
# Neu5Gc(a2-3)Gal(b1-4)Glc = target: Neu5Gc(a2-3)Gal(b1-4)Glc
# Outline: as §1
# [25] = target: Neu5Gc(a2-3)Gal(b1-4)GlcNAc
# Outline: as §1
# [26] = target: Neu5Gc(a2-3)Gal(b1-4)GlcNAc(b1-3)Gal(b1-4)GlcNAc(b1-2)Man(a1-3)[Neu5Gc(a2-3)Gal(b1-4)GlcNAc(b1-3)Gal(b1-4)GlcNAc(b1-2)Man(a1-6)]Man(b1-4)GlcNAc(b1-4)GlcNAc
# Outline: as §1
# [27] = target: Neu5Gc(a2-3)Gal(b1-4)[Fuc(a1-3)]GlcNAc
# Outline: as §1
# [28] = target: Neu5Gc(a2-6)Gal(b1-4)GlcNAc
# Outline: as §1
# Neu5Gc(a2-6)GalNAc = target: Neu5Gc(a2-6)GalNAc
# Outline: as §1
# [29] = target: Neu5Gc(a2-8)Neu5Ac(a2-3)Gal(b1-4)GlcNAc
# Outline: as §1
# [30] = target: Neu5Gc(a2-8)Neu5Gc(a2-3)Gal(b1-4)GlcNAc
# Outline: as §1
# [31] = target: Neu5Gc(a2-8)Neu5Gc(a2-3)Gal(b1-4)GlcNAc(b1-3)Gal(b1-4)GlcNAc
# Outline: as §1
# [32] = target: Neu5Gc(a2-8)Neu5Gc(a2-6)Gal(b1-4)GlcNAc
# Outline: as §1
# [33] = target: Neu5Gc(b2-6)Gal(b1-4)GlcNAc
# Outline: as §1
binder,measurement,setting,value
"Tp0751, 83732 (protein) MSYYHHHHHHLESTSLYKKAGFQHGHVPPRRIPPHDTFGALPTAALPSNARDTAAHPSDTADNTSGSSTTTDPRSHGNAPPAPVGGAAQTHTQPPVQTAMRIALWNRATHGEQGALQHLLAGLWIQTEISPNSGDIHPLLFFDREHAEITFSRASVQEIFLVDSAHTHRKTVSFLTRNTAISSIRRRLEVTFESHEVIHVRAVEDVARLKIGSTSMWDGQYTRYHAGPASAPSP",glycan array binding signal (z-score),[1],-0.122
same,glycan array binding signal (z-score),[2],-0.05
same,glycan array binding signal (z-score),[3],-0.301
same,glycan array binding signal (z-score),Neu5Ac(a2-6)GalNAc,0.257
same,glycan array binding signal (z-score),[4],-0.508
same,glycan array binding signal (z-score),[5],0.102
same,glycan array binding signal (z-score),[6],-0.395
same,glycan array binding signal (z-score),[7],-0.453
same,glycan array binding signal (z-score),Neu5Ac(a2-8)Neu5Ac,-0.322
same,glycan array binding signal (z-score),[8],-0.471
same,glycan array binding signal (z-score),[9],0.938
same,glycan array binding signal (z-score),[10],-0.367
same,glycan array binding signal (z-score),[11],0.24
same,glycan array binding signal (z-score),[12],-0.253
same,glycan array binding signal (z-score),[13],-0.022
same,glycan array binding signal (z-score),[14],-0.242
same,glycan array binding signal (z-score),[15],0.36
same,glycan array binding signal (z-score),[16],-0.594
same,glycan array binding signal (z-score),[17],-0.441
same,glycan array binding signal (z-score),[18],-0.293
same,glycan array binding signal (z-score),[19],-0.55
same,glycan array binding signal (z-score),[20],-0.267
same,glycan array binding signal (z-score),Neu5Ac(b2-6)GalNAc,-0.232
same,glycan array binding signal (z-score),[21],0.28
same,glycan array binding signal (z-score),[22],-0.145
same,glycan array binding signal (z-score),[23],0.052
same,glycan array binding signal (z-score),[24],-0.37
same,glycan array binding signal (z-score),Neu5Gc(a2-3)Gal(b1-4)Glc,-0.489
same,glycan array binding signal (z-score),[25],-0.519
same,glycan array binding signal (z-score),[26],-0.177
same,glycan array binding signal (z-score),[27],-0.312
same,glycan array binding signal (z-score),[28],-0.007
same,glycan array binding signal (z-score),Neu5Gc(a2-6)GalNAc,-0.235
same,glycan array binding signal (z-score),[29],-0.436
same,glycan array binding signal (z-score),[30],-0.645
same,glycan array binding signal (z-score),[31],-0.398
same,glycan array binding signal (z-score),[32],-0.636
same,glycan array binding signal (z-score),[33],-0.3
